From PubChem BioAssay AID493014 (National Center for Advancing Translational Sciences (NCATS), 2011)
This is one part of the list. Further columns of the screen follow, without active or inactive calls. Most of these compounds were active or inconclusive in the main read-out, so they are no random draw. Words in brackets tell the shape of the fitted curve; partial curves, single points and poor fits give uncertain potencies.

assay: qHTS Assay to Find Inhibitors of Chronic Active B-Cell Receptor Signaling; conditions: ABC-DLBCL IkBa-CBG/CBR reporter, luminescence ratio (green luciferase fused to IkBa over red control in TMD8 lymphoma cells), 4 h; measured here: CBR red luminescence, cell number
Outline: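 Doxycycline induced both beetle luciferases in TMD8 lymphoma cells; IKK-driven degradation limits the IkappaBalpha-fused green signal, while red luminescence normalises for cell number and nonspecific effects. Compounds tested up to 46 uM, 4 hrs.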

| Structure (SMILES) | AC50 |
| --- | --- |
| Cc1ccccc1CNCc1ccc2c(c1)OCO2 | 35.5 µM [falling, single point] |
| COc1ccc(/C=N/n2c(SC)nnc(C(C)(C)C)c2=O)cc1 | 3.26 µM [rising, single point] |
| CC(=O)C1=C(O)C(=O)N(c2ccc(C(=O)O)cc2)C1c1ccc([N+](=O)[O-])cc1 (stereo not drawn) | 35.5 µM [falling, partial curve, poor fit] |
| Cc1cc(/C=N/NC(=O)c2ccccn2)c(C)n1-c1cccc([N+](=O)[O-])c1 | 10 µM [falling, partial curve, poor fit] |
| CCOCCCNC(=O)/C(C#N)=C/c1ccccc1F | 10 µM [falling, partial curve, poor fit] |
| O=C(Nc1cccc(NC(=O)c2ccccc2F)c1)c1ccccc1 | 35.5 µM [falling, single point] |
| CCN(CC(=O)Nc1ccc([N+](=O)[O-])cc1OC)c1ccccc1 | 10 µM [falling, partial curve] |
| CCN(CC)C(=O)CC(c1ccc(F)cc1)c1ccco1 (stereo not drawn) | 29.1 µM [falling, single point] |
| CCN(Cc1nc2ccccc2c(=O)[nH]1)C(=O)COc1ccccc1-c1ccccc1 | 18.4 µM [falling, single point] |
| O=C(NCCc1ccccc1)c1cnc2sccn2c1=O | 20.6 µM [falling, single point] |
| C=CCOC(=O)C(=O)/C=C/c1ccc2c(c1)Cc1ccccc1-2 | 1.58 µM [falling, partial curve, poor fit] |
| CN1CCN(CCCNC(=O)c2cc3c(=O)n(C)c4ccccc4c3s2)CC1 | 16.4 µM [falling, partial curve, poor fit] |
| O=C(CCc1ccccc1)Nc1cc2c(cc1Cl)OCCO2 | 29.1 µM [rising, single point] |
| S=C(NCCN1CCOCC1)Nc1ccc(-c2nc3ccccc3[nH]2)cc1 | 12.6 µM [falling, partial curve, poor fit] |
| COc1ccccc1C(=O)COC(=O)c1cccs1 | 2.06 µM [rising, full curve] |
| CS(=O)(=O)c1ccc(-c2sc3ccccc3c2C(=O)N2CCN(c3ccc(F)cc3)CC2)cc1 | 0.0366 µM [rising, full curve, poor fit] |
| COc1ccc(OC)c(Nc2cc(-c3ccccc3)nc(N)n2)c1 | 29.1 µM [rising, single point] |
| c1ccc(CSc2nnc(-c3sccc3-n3cccc3)o2)cc1 | 12.6 µM [rising, partial curve] |

Nothing new here: an excerpt of the list.

| Structure (SMILES) | AC50 |
| --- | --- |
| COc1ccccc1C(=O)COC(=O)c1cccs1 | 2.06 µM [rising, full curve] |
| CS(=O)(=O)c1ccc(-c2sc3ccccc3c2C(=O)N2CCN(c3ccc(F)cc3)CC2)cc1 | 0.0366 µM [rising, full curve, poor fit] |
